Laboratory results: the supplement of paper PMC9233669
Variants at the background level are over-represented here.

Key:
biotinyl-Ile-oxazolone = experiment: self-aminoacylation, catalytic enhancement (BIO) (fold over background); higher = more active; k-Seq, kA / k0A0; sequences stand for … in GGGAAUGGAUCCACAUCUACGAAUUC…UUCACUGCAGACUUGACGAAGCUG
Summary of the method: (§1)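 Mutagenized RNA pools with a 21-nt variable region (0.43 μM) were reacted with each biotinyl-aminoacyl-oxazolone at 2–1250 μM for 90 minutes at room temperature, in 50 μL HEPES/NaCl/KCl/MgCl2/CaCl2 buffer containing 5% acetonitrile at pH 6.9–7.0. RNA captured on streptavidin was quantified by triplicate qPCR and by Illumina sequencing. The fraction reacted for each sequence was fit to a pseudo-first-order model with bootstrapping, and catalytic enhancement is the median kA divided by the uncatalyzed rate, taken as the low-activity peak of a bimodal Gaussian fit.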

biotinyl-Val-oxazolone = experiment: self-aminoacylation, catalytic enhancement (BVO) (fold over background); higher = more active; k-Seq, kA / k0A0; sequences stand for … in GGGAAUGGAUCCACAUCUACGAAUUC…UUCACUGCAGACUUGACGAAGCUG
Summary of the method: as §1

biotinyl-Met-oxazolone = experiment: self-aminoacylation, catalytic enhancement (BMO) (fold over background); higher = more active; k-Seq, kA / k0A0; sequences stand for … in GGGAAUGGAUCCACAUCUACGAAUUC…UUCACUGCAGACUUGACGAAGCUG
Summary of the method: as §1

biotinyl-Leu-oxazolone = experiment: self-aminoacylation, catalytic enhancement (BLO) (fold over background); higher = more active; k-Seq, kA / k0A0; sequences stand for … in GGGAAUGGAUCCACAUCUACGAAUUC…UUCACUGCAGACUUGACGAAGCUG
Summary of the method: as §1

biotinyl-Trp-oxazolone = experiment: self-aminoacylation, catalytic enhancement (BWO) (fold over background); higher = more active; k-Seq, kA / k0A0; sequences stand for … in GGGAAUGGAUCCACAUCUACGAAUUC…UUCACUGCAGACUUGACGAAGCUG
Summary of the method: as §1

biotinyl-Phe-oxazolone = experiment: self-aminoacylation, catalytic enhancement (BFO) (fold over background); higher = more active; k-Seq, kA / k0A0; sequences stand for … in GGGAAUGGAUCCACAUCUACGAAUUC…UUCACUGCAGACUUGACGAAGCUG
Summary of the method: as §1

Row | Sequence | self-aminoacylation (biotinyl-Ile-oxazolone) | self-aminoacylation (biotinyl-Val-oxazolone) | self-aminoacylation (biotinyl-Met-oxazolone) | self-aminoacylation (biotinyl-Leu-oxazolone) | self-aminoacylation (biotinyl-Trp-oxazolone) | self-aminoacylation (biotinyl-Phe-oxazolone)
1 | AUUCACCUAGGUCAUCGAGCG [Fam2.2 aminoacylation ribozyme variant] | 1.2 | 1.19 | 1.36 | 1.57 | 1.09 | 1.47
2 | CAACACUUGAAGCAAUCGGUC [Fam1B.1 aminoacylation ribozyme variant] | 0.911 | 0.828 | 0.731 | 0.842 | 0.696 | 0.601
3 | AAGUUUUCUAAUAGACGCAAG [Fam3.1 aminoacylation ribozyme variant] | 1.01 | 0.879 | 0.817 | 0.736 | 0.898 | 1.8
4 | AUUACCCUGGUAAUCGAUUGA [Fam2.1 aminoacylation ribozyme variant] | 0.711 | 0.777 | 0.791 | 0.748 | 0.469 | 0.956
5 | CUACACUUCAAGCAACCGGUC [Fam1B.1 aminoacylation ribozyme variant] | 0.923 | 1.02 | 0.749 | 0.663 | 0.531 | 1.03
6 | CCACACUUCCAGGAAUCGGUC [Fam1B.1 aminoacylation ribozyme variant] | 1.31 | 1.13 | 1.06 | 1.41 | 1.46 | 0.865
7 | CCACACGUCAAGCAAUCGGUA [Fam1B.1 aminoacylation ribozyme variant] | 1.25 | 1.98 | 1.52 | 1.29 | 1.09 | 1.03
8 | AUUACCCUGGUCAUCGACUCA [Fam2.1 aminoacylation ribozyme variant] | 0.596 | 0.608 | 0.51 | 0.503 | 0.472 | 0.552
9 | AUGCCCCUAGGUCAUCGGGUG [Fam2.2 aminoacylation ribozyme variant] | 5.52 | 5.39 | 8.48 | 11.1 | 7.6 | 63.9
10 | AUGUGUGCUAAUAGUCGCAAG [Fam3.1 aminoacylation ribozyme variant] | 1.57 | 1.37 | 1.2 | 1.36 | 1.95 | 3.53
11 | CUACUUCGAACAAUCGCUCUG [Fam1A.1 aminoacylation ribozyme variant] | 0.81 | 0.779 | 0.921 | 0.651 | 0.756 | 1.36
12 | UCACACUUCAAGCAUUCGGUC [Fam1B.1 aminoacylation ribozyme variant] | 1.24 | 1.37 | 1.23 | 1.19 | 1.33 | 0.838
13 | AUUCACAUAGGUCAUCGGAUG [Fam2.2 aminoacylation ribozyme variant] | 0.903 | 0.857 | 0.698 | 0.649 | 0.403 | 0.549
14 | AAGUUUGCUAAUAGCCGCAAA [Fam3.1 aminoacylation ribozyme variant] | 1.92 | 1.58 | 1.86 | 1.38 | 1.3 | 1.38
15 | AUCACCCUGGUCAUCGGGUGA [Fam2.1 aminoacylation ribozyme variant] | 5.17 | 5.27 | 9.05 | 9.48 | 14.1 | 33.4
16 | AUUCACCUAGGUCAUGAGGUG [Fam2.2 aminoacylation ribozyme variant] | 1.94 | 1.81 | 2.41 | 3.15 | 1.75 | 3.32
17 | ACACACUUCACGCAAUCGGUC [Fam1B.1 aminoacylation ribozyme variant] | 1.48 | 1.48 | 1.54 | 1.52 | 1.83 | 1.54
18 | AUUCACCUUGGUCAUCGGGAG [Fam2.2 aminoacylation ribozyme variant] | 1.07 | 1.05 | 1.05 | 1.09 | 1.27 | 0.73
19 | AUUACCCUGGUCAACGAAUGA [Fam2.1 aminoacylation ribozyme variant] | 0.91 | 0.927 | 0.652 | 0.797 | 0.686 | 0.423
20 | CCACUCUUCAAGCAUUCGGUC [Fam1B.1 aminoacylation ribozyme variant] | 1.44 | 1.67 | 1.21 | 1.31 | 1.72 | 0.975
21 | AAGUUCGCUAAUAGUGGCAAG [Fam3.1 aminoacylation ribozyme variant] | 0.737 | 0.56 | 0.601 | 0.8 | 0.444 | 0.484
22 | CUACUUCUAACAAUUGGUCUG [Fam1A.1 aminoacylation ribozyme variant] | 0.777 | 0.705 | 0.633 | 0.719 | 0.367 | 0.669
23 | AUUCACAUAGGUCAUCGGGGG [Fam2.2 aminoacylation ribozyme variant] | 1.85 | 1.87 | 2.28 | 1.93 | 2.66 | 0.694
24 | AUUCACCUAGGUGAUCGAGUG [Fam2.2 aminoacylation ribozyme variant] | 1.03 | 1.05 | 1.09 | 1.2 | 1.03 | 0.745
25 | CUACUUGAAACAAUCAGUCUG [Fam1A.1 aminoacylation ribozyme variant] | 0.748 | 0.809 | 0.65 | 0.683 | 0.451 | 0.584
26 | GUUACCCUGGUCUUCGAGUGA [Fam2.1 aminoacylation ribozyme variant] | 4.45 | 5.01 | 8.47 | 8.79 | 10.1 | 50.7

Row | Sequence | self-aminoacylation (biotinyl-Ile-oxazolone) | self-aminoacylation (biotinyl-Val-oxazolone) | self-aminoacylation (biotinyl-Met-oxazolone) | self-aminoacylation (biotinyl-Leu-oxazolone) | self-aminoacylation (biotinyl-Trp-oxazolone) | self-aminoacylation (biotinyl-Phe-oxazolone)
27 | CCAUACUUUAAGCAAUCGGUC [Fam1B.1 aminoacylation ribozyme variant] | 0.906 | 0.857 | 0.655 | 0.746 | 0.599 | 0.907
28 | AAGUUUGCUAAUCGUAGCAAG [Fam3.1 aminoacylation ribozyme variant] | 0.739 | 0.809 | 0.521 | 0.728 | 0.676 | 1.02
29 | CUACACUUCAAGCAAUCGGAC [Fam1B.1 aminoacylation ribozyme variant] | 0.806 | 0.657 | 0.963 | 0.602 | 0.898 | 1.9
30 | CUACUUCAAACACUCGGGCUG [Fam1A.1 aminoacylation ribozyme variant] |  |  | 1.62 |  | 1.5 | 1.3
31 | AAGUUAGCUAAUAGUCGCAAC [Fam3.1 aminoacylation ribozyme variant] | 1.38 | 1.29 | 1.05 | 1.01 | 1.62 | 1.82
32 | AUUCCCCUGGUCAUCUAGUGA [Fam2.1 aminoacylation ribozyme variant] | 5.92 | 6.23 | 11.9 | 11.4 | 13 | 85.5
33 | CUACUUCAAACAAUCGCUGUG [Fam1A.1 aminoacylation ribozyme variant] | 1.38 | 1.14 | 1.4 |  | 1.88 | 1.9
34 | AUUACUCUGGUCAUCGAGUGG [Fam2.1 aminoacylation ribozyme variant] | 1.71 | 1.47 |  |  | 1.16 | 1.75
35 | CUUACCCUGGUCAUCGAGGGA [Fam2.1 aminoacylation ribozyme variant] | 1.01 |  | 1.33 | 1.2 | 1.58 | 0.844
36 | AAGUAUGCUAAUAGUCGCCAG [Fam3.1 aminoacylation ribozyme variant] | 1.57 | 1.06 | 1.19 | 1.16 |  | 1.52
37 | GUACUACAAACAAUCGGUCUG [Fam1A.1 aminoacylation ribozyme variant] | 1.11 | 1.07 | 1.11 | 0.95 |  | 1.76
38 | AAGUAUGCUAAUAGUCGCACG [Fam3.1 aminoacylation ribozyme variant] | 1.22 | 1.09 | 0.989 | 1.5 |  | 1.72
39 | AAGUGUGCUAAUAGUCGCGAG [Fam3.1 aminoacylation ribozyme variant] | 1.59 | 1.48 | 1.18 |  |  | 1.5
40 | AAGUUAGCUAAUCGUCGCAAG [Fam3.1 aminoacylation ribozyme variant] | 1.49 | 1.22 | 1.08 | 1.47 |  | 1.46
41 | AUUACUCUGGUCAUCGAGGGA [Fam2.1 aminoacylation ribozyme variant] | 1.52 | 1.35 |  | 1.56 |  | 1.15
42 | ACACACUUCAAGCAACCGGUC [Fam1B.1 aminoacylation ribozyme variant] | 1.18 | 1.54 | 1.51 | 1.17 | 1.13 | 
43 | CUACUUCAAACAAUCGGAAUG [Fam1A.1 aminoacylation ribozyme variant] | 1.17 | 0.846 | 0.991 | 0.969 | 4.46 | 
44 | AAGCCUGCUAAUAGUCGCAAG [Fam3.1 aminoacylation ribozyme variant] | 1.86 | 1.77 | 1.61 | 1.64 | 11.1 | 
45 | AUUACCCUGGCCAUCCAGUGA [Fam2.1 aminoacylation ribozyme variant] | 4.38 | 4.01 | 7.34 | 8.23 | 7.75 | 
46 | AAGUUGGCUAAUAGUCACAAG [Fam3.1 aminoacylation ribozyme variant] | 1.66 | 1.33 | 1.36 | 1.38 |  | 1.91
47 | AUUACCCUGGUCAUCAUGUGA [Fam2.1 aminoacylation ribozyme variant] | 2.67 | 3.17 | 6.44 | 6.36 | 6.97 | 
48 | GUUCACCUAGGUCAUCGGGAG [Fam2.2 aminoacylation ribozyme variant] | 1.39 | 1.7 | 1.44 | 1.74 |  | 1.07
49 | AAGUAUGAUAAUAGUCGCAAG [Fam3.1 aminoacylation ribozyme variant] | 1.22 | 1.28 | 1.13 | 1.1 | 1.2 | 
50 | AUUACCCUGGUCCUCGAGGGA [Fam2.1 aminoacylation ribozyme variant] | 1.48 |  | 1.39 | 1.64 |  | 0.556
51 | CUACUGCAAACAGUCGGUCUG [Fam1A.1 aminoacylation ribozyme variant] | 0.827 | 0.818 | 1.03 | 0.643 | 0.649 | 
52 | CGACUUCAAACAAUCGAUCUG [Fam1A.1 aminoacylation ribozyme variant] | 0.668 | 0.729 | 0.604 | 0.719 | 1.4 | 
